Reference: publication PMC12017343, “Extended repertoire of CXC chemokines acting as agonists and antagonists of the human and murine atypical chemokine receptor ACKR2” (Journal of Leukocyte Biology, 2025)
These are yes or no findings as the source states them, for the method shown. In cells and extracts the contact can be indirect. A result given as binding can be weak or reduced; the word gives no strength. Tags and fused reporters may be left off the sequences shown.

Protein sequences, listed by entry. Tags and fused reporters are not part of them. Lines headed by an entry give the natural chain unless they say otherwise; changes in a name come on top.
UniProt Q99616: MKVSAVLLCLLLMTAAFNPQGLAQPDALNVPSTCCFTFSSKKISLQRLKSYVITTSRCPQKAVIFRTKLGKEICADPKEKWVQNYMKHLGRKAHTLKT

What was measured:
[1] = target: T1, human ACKR2 N-terminally fused with the NanoLuc (human) (UniProt O00590); experiment: FRET or BRET; NanoBRET competition binding screen: competitor chemokine (100 nM) against LIH222-AZ594 (5 nM for human, 10 nM for mouse ACKR2) on HEK293T cells expressing NanoLuc-ACKR2; 2 h on ice; only the binder purified
T1 sequence: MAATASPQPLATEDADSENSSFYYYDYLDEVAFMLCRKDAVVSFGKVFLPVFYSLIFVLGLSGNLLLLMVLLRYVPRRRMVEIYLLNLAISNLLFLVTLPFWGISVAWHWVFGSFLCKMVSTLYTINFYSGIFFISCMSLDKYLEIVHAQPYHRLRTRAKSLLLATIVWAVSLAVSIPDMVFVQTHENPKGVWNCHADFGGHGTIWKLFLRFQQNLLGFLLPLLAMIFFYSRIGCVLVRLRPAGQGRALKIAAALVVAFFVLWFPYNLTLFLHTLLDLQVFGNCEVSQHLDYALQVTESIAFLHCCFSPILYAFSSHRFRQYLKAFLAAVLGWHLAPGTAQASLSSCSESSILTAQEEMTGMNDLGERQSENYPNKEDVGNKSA

[2] = target: T1, human ACKR2 N-terminally fused with the NanoLuc (human); experiment: FRET or BRET; NanoBRET competition binding, concentration-response: increasing chemokine (highest 300 nM) against LIH222-AZ594 (5 nM for human, 10 nM for mouse) on HEK293T cells expressing NanoLuc-ACKR2; 2 h on ice; only the binder purified
[3] = target: T2, mouse ACKR2 N-terminally fused with the NanoLuc (mouse) (UniProt O08707); experiment: FRET or BRET; NanoBRET competition binding screen: competitor chemokine (100 nM) against LIH222-AZ594 (5 nM for human, 10 nM for mouse ACKR2) on HEK293T cells expressing NanoLuc-ACKR2; 2 h on ice; only the binder purified
T2 sequence: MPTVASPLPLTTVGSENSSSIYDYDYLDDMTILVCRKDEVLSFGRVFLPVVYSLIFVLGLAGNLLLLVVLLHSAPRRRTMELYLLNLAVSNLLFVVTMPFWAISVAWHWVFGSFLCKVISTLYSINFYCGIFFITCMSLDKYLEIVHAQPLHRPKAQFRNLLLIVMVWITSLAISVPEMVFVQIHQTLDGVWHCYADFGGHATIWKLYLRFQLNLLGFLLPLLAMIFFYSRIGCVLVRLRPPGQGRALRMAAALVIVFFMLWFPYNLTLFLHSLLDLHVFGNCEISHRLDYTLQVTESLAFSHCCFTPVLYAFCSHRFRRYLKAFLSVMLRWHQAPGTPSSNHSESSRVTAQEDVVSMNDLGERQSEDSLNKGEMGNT

| binding [1] | binding [2] | binding [3] | Substance |
| --- | --- | --- | --- |
| binds | – | – | human CCL13 (from UniProt Q99616) (ligand) |
| binds | – | – | human CCL14 (ligand) |
| binds | binds | – | human CXCL5 (ligand) |
| – | – | binds | mouse CXCL5 (ligand) |
